Values of other authors as cited in US5959109A, “Compounds and methods for increasing endogenous levels of corticotropin-releasing factor” (Neurocrine Biosciences, Inc., priority 1996, dated 1999).

Details: 0.3 mg/kg ip; cited from earlier work

CN1[C@@H]2C[C@@H](OC(=O)[C@H](CO)c3ccccc3)C[C@H]1[C@@H]1O[C@@H]12 [scopolamine]
acquisition and retention of spatial and avoidance learning: impairs acquisition and retention of spatial and avoidance learning paradigms in the rat
